Assay results as given in paper doi:10.1101/2024.07.29.603210.
Where two headings read alike, the source gives them in different places. Results are given in words; binding and its absence hold for the method and conditions named. In cells and extracts the contact can be indirect. A yes stands for co-enrichment or nearness to the bait. Other partners may have been found. Where a sequence is shown, tags or fusion partners need not be part of it.

Chains of the proteins cited; added tags and fusions are not shown.
UniProt Q99KN2: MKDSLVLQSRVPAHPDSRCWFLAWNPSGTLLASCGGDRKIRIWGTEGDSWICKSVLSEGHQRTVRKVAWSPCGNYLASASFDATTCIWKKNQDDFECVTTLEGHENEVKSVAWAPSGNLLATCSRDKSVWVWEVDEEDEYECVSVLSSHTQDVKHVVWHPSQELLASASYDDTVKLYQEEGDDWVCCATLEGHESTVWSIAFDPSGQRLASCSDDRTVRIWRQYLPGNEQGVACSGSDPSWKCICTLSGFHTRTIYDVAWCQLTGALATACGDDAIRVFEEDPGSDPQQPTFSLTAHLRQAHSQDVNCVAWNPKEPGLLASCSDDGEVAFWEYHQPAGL

What was measured:
[1] = molecular target: T1, mitoNEET tagged with HA in its C-terminus (mouse, full length) (mouse) (UniProt Q91WS0); assay: affinity purification with mass spectrometry
T1 sequence: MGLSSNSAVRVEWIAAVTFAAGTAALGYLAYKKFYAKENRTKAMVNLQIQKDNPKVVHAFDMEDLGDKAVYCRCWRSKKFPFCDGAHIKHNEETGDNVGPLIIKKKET

[2] = molecular target: T1, mitoNEET tagged with HA in its C-terminus (mouse, full length) (mouse); assay: affinity purification with mass spectrometry; remark: listed apart in the source

With Ciao1 (from UniProt Q99KN2 1-339) the binding [1] was “binds”.

B1: prohibitin (protein, UniProt P67778 1-272)
chain: MAAKVFESIGKFGLALAVAGGVVNSALYNVDAGHRAVIFDRFRGVQDIVVGEGTHFLIPWVQKPIIFDCRSRPRNVPVITGSKDLQNVNITLRILFRPVASQLPRIYTSIGEDYDERVLPSITTEILKSVVARFDAGELITQRELVSRQVSDDLTERAATFGLILDDVSLTHLTFGKEFTEAVEAKQVAQQEAERARFVVEKAEQQKKAAIISAEGDSKAAELIANSLATAGDGLIELRKLEAAEDIAYQLSRSRNITYLPAGQSVLLQLPQ
With B1 the binding [2] was “binds”.
